# Results deposited as PubChem BioAssay AID1259424 (University of Nebraska Medical Center, 2018).
# Assay: 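Seek colon cancer survival genes behaving like KSR1, using a six-gene signature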 (primary screen)
# Cells: human HCT116 colon cancer cells
# Reagent: siRNA pool against human genes, 50 nM
# Read-out: 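Log2 levels of six mRNAs (branched-DNA multiplex), adjusted by two reference genes and the non-targeting median, then scored against the average KSR1 knockdown pattern as Pearson r and euclidean distance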
# Direction: mean correlation with KSR1 profile: higher = expression change more like KSR1 knockdown
# Shown is an unselected part of about 14,000 reagents tested. 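Higher correlation or smaller distance means closer resemblance to KSR1 loss; control wells, including KSR1 knockdowns, recur on many plates.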 Further read-outs or replicates are left out here. Not given: the time to read-out.
Gene,mean correlation with KSR1 profile
HCP5,-0.111
MLPH,-0.665
RFX4,0.43
COMMD10,-0.678
IKZF4,-0.661
PITPNM2,-0.357
DCTPP1,-0.651
PPM1E,0.402
GOLGA2,0.548
HEMK1,-0.71
RBM7,0.555
COL6A2,0.325
SMOC1,-0.212
TRIM66,-0.375
CRYM,-0.587
DPH5,-0.486
CERCAM,0.305
PYCR3,0.438
ATP1B2,0.0547
PRDX3,-0.0972
TSPAN15,-0.326

Not a retest: 4 of the entries above.
Gene,mean correlation with KSR1 profile
CERCAM,0.305
PYCR3,0.438
ATP1B2,0.0547
PRDX3,-0.0972

More results:
Gene,mean correlation with KSR1 profile
TRAF3IP3,0.153
PRKCA,0.406
MTMR6,0.54
UIMC1,-0.0743
CNTNAP3,0.423
SNRPB,-0.585
MRPL45,0.448
HIRA,-0.234
FUBP3,0.849
SHD,0.253
FHL2,0.368
UGT2B17,0.0822
DENND10P1,0.145
